Out of some 2,400 compounds screened, about 20 (0.8%) were called active.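 The calls were made as follows: active = AC50 no more than ten times the highest tested concentration, or full inhibition at every dose giving a flat fit (cut at about 30 µM in these data); inconclusive = flat fit with activity between 30% and 70%, or poor-quality invalid fit; inactive = AC50 more than ten times the top tested dose.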 This is one part of the list.
Assay: inhibitors of ADP-Glo detection reagents, dose response, artefact control for GSK-3a inhibitor project, biochemical, luminescence, cell-free, homogeneous (AID 463205);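 also: kinase-free counter-screen against the ADP-Glo detection reagents only; potency is for inhibitors that reduce the luminescence signal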
Conditions: 5 uM ADP

AC50, inactive:
COc1ccc(COC(=O)C2=C(C)NC(=O)NC2c2ccc(F)cc2)cc1 (stereo not given) > 30 µM
CCOc1ccc(Cn2nnc(C(=O)Nc3cc(OC)cc(OC)c3)c2N)cc1 > 30 µM
NC(=O)Cn1cc(/C=N\NS(=O)(=O)c2cccc([N+](=O)[O-])c2)c2ccccc21 > 30 µM
COc1cc(NC(=O)c2cc([N+](=O)[O-])ccc2NC(=O)CNC2CCCCC2C)cc(OC)c1 (stereo not given) > 30 µM
N#Cc1c2ccc(O)cc2n2ccccc12 > 30 µM
C/C(=N\NC(=O)CSc1nc(C)[nH]c1[N+](=O)[O-])c1ccc(F)cc1 > 30 µM
Nc1cc(C(F)(F)F)ccc1C(=O)O > 30 µM
COc1ccc(-c2cc(C(F)(F)F)nc(SCC(=O)NCc3ccco3)n2)cc1OC > 30 µM
O=c1c2ccccc2oc2ccc(NCCCn3ccnc3)cc12 > 30 µM
O=C(O)c1ccc(N=Nc2c(O)[nH]c3ccc(Br)cc23)cc1 > 30 µM
Cc1ccc(-c2cn3cccnc3n2)cc1NC(=O)c1c(-c2ccccc2Cl)noc1C > 30 µM
Cc1nc(-c2ccncc2)nc(NCCNc2ccc(C(F)(F)F)cn2)c1Cl > 30 µM
FC(F)(F)c1cnc(N/N=C/c2ccncc2)c(Cl)c1 > 30 µM
Fc1ccccc1/C=N/Nc1ncnc2ccccc12 > 30 µM
CCOC(=O)CSc1nc(C)[nH]c1[N+](=O)[O-] > 30 µM
Cc1nc(NCC2CCCO2)nc2c1C(=O)CC(C)C2 (stereo not given) > 30 µM
CCOC(=O)c1cnc2c(C)c(Cl)ccc2c1N1CCN(CC)CC1 > 30 µM
CCCc1cc(C(N)=O)c(NC(C)=O)s1 > 30 µM
Cc1noc(C)c1CSc1nnc(-c2ccccc2)o1 > 30 µM
CCCNC(=O)NC(C)C12CC3CC(CC(C3)C1)C2 (stereo not given) > 30 µM
COc1cccc(/C=c2\s/c(=C\C(=O)C(C)(C)C)[nH]c2=O)c1 > 30 µM
CCc1c(C)c(C#N)c2nc3ccccc3n2c1NCc1ccccn1 > 30 µM
CCOC(=O)C1CCN(c2c(C(=O)c3ccccc3)cnc3ccc(Cl)cc23)CC1 > 30 µM
COc1ccc(Nc2nc(Cl)c(C=O)s2)cc1 > 30 µM
COc1cccc(C(=O)NCC(=O)OCC(=O)c2ccccc2)c1 > 30 µM
Cc1cc(=O)[nH]c2c(C)c(N)ccc12 > 30 µM
O=C(O)Cn1c(=O)c2c3c(sc2n(Cc2ccccc2)c1=O)CCCC3 > 30 µM
COC(=O)c1cnn(C(=O)c2cc(OC)ccc2Br)c1N > 30 µM
CCC(C)c1ccc(NC(=S)NCc2cccs2)cc1 (stereo not given) > 30 µM
COc1cc(/C=N/O)ccc1OCc1ccc([N+](=O)[O-])cc1 > 30 µM
COc1cc(/C=N\NC(=O)c2sc(N)nc2C)cc(OC)c1OC > 30 µM
O=c1c(O)c(-c2cc(O)c(O)c(O)c2)oc2cc(O)cc(O)c12 > 30 µM
COc1ccc(Nc2sc(C(=O)c3ccc(Cl)cc3)c(N)c2C(=O)Nc2ccccc2OC)cc1 > 30 µM
COc1ccc(-c2cc(=O)c3c(O)cc(O)cc3o2)cc1 > 30 µM
O=c1c(O)cccc2cc(O)c(O)c(O)c12 > 30 µM
COc1ccc(C(=O)c2sc3nc(-c4ccc(OC)cc4)ccc3c2N)cc1 > 30 µM
Cc1oc2c(Cl)c(Cl)c(O)c(CN(C)C)c2c1C(=O)c1ccc(Cl)cc1 > 30 µM
Cc1cc(C)c(S(=O)(=O)Nc2ccnc(-c3cccnc3)n2)c(C)c1 > 30 µM
CCc1ccc(N2CC(C(=O)Nc3nccs3)CC2=O)cc1 (stereo not given) > 30 µM
CS(=O)(=O)N1CCN(c2ccccc2NC(=O)c2ccco2)CC1 > 30 µM
NC(=O)c1sc2nc3c(c(-c4ccccc4)c2c1N)CCC3 > 30 µM
CC1CCc2c(sc3ncnc(NCCCOC(C)C)c23)C1 (stereo not given) > 30 µM
O=C(Cn1c(NCCO)nc2ccccc21)c1ccc([N+](=O)[O-])cc1 > 30 µM
CC(C)c1ccc(C2CC(=O)N3CN(Cc4ccco4)CSC3=C2C#N)cc1 (stereo not given) > 30 µM
CCOC(=O)c1c(C)c[nH]c1C > 30 µM
CC1(C)Cc2nc3sc4c(SCC(=O)O)ncnc4c3cc2CO1 > 30 µM
O=C1Nc2ccccc2C1(O)c1ccccc1O (stereo not given) > 30 µM
COc1ccc(CNC(=O)c2cc(COc3c(F)cccc3F)on2)cc1OC > 30 µM
CCCCOC(=O)C1=C(C)Nc2ncnn2C1c1cccc(OC)c1 (stereo not given) > 30 µM
CCCc1cc(C(N)=O)c(NC(=O)C2CCCO2)s1 (stereo not given) > 30 µM
Nc1nc(N)nc(-c2cc(O)ccc2O)n1 > 30 µM
Clc1cccc(/C=N/Nc2ncnc3ccccc23)c1 > 30 µM
COc1ccc(CCn2cnc(=O)c(C#N)c2C)cc1OC > 30 µM
COCc1nnc(NC(=O)CCN2C(=O)c3ccccc3C2=O)s1 > 30 µM
Cc1cccc(N2CCN(C(=O)c3cc4c(=O)[nH]c5ccccc5c4n3C)CC2)c1C > 30 µM
COc1ccc(-c2cncnc2-c2ccc(OC)cc2O)cc1 > 30 µM
COc1ccccc1N1C(=O)C2C(c3ccc(F)cc3)NN(C(=O)c3ccc(C)cc3)C2C1=O (stereo not given) > 30 µM
NS(=O)(=O)c1ccc(NC(=O)CSc2nnc(-c3ccc(O)cc3)o2)cc1 > 30 µM
CCCCN(CCCC)S(=O)(=O)c1ccc2oc(C(=O)N3CCOCC3)c(C)c2c1 > 30 µM
N#CCCn1cc(C(=O)N2CCCCC2)c(-c2cccc([N+](=O)[O-])c2)n1 > 30 µM
Cc1ccc(C(=O)O/N=C(\N)c2cccc([N+](=O)[O-])c2)cc1 > 30 µM
Cc1ccc(S(=O)(=O)Nc2cc(Cl)c(O)c3ncccc23)cc1 > 30 µM
COc1ccc(OCC(=O)N/N=C/c2ccc(N(C)C)cc2)cc1 > 30 µM
O=C(COC(=O)CCc1ccc(S(=O)(=O)N2CCOCC2)cc1)Nc1ccc(Cl)cn1 > 30 µM
O=C(NCCCN1CCOCC1)c1ccc(Cl)c([N+](=O)[O-])c1 > 30 µM
O=C(O)c1ccc2c(c1)S(=O)(=O)c1cc(Cl)ccc1C2=O > 30 µM
O=C(c1ccc2c3n(nc2c1)-c1ccc(Cl)cc1CO3)N1CCCCC1 > 30 µM
CCOc1nc(NCCN2CCOCC2)nc(Nc2ccc([N+](=O)[O-])cc2)n1 > 30 µM
O=c1c2ccccc2oc2cc(NCCCn3ccnc3)ccc12 > 30 µM
CN1/C(=C\C=[N+](C)c2ccccc2)C(C)(C)c2ccccc21 > 30 µM
O=C(CSc1n[nH]c(=O)n1-c1ccc2c(c1)OCCO2)Nc1ccccc1 > 30 µM
Cc1ccc(-c2[nH]nc3c2C(c2ccoc2)C(C#N)=C(N)O3)cc1C (stereo not given) > 30 µM
COc1cccc(C(=O)Nc2ccncc2)c1OC > 30 µM
COc1ccc(-c2cc(C(=O)N3CCN(c4ccccc4)CC3)no2)cc1 > 30 µM
Clc1ccccc1/C=N/Nc1cc(N2CCOCC2)ncn1 > 30 µM
c1ccc2c(c1)Sc1ccccc1-n1cnnc1-2 > 30 µM
Cc1ccccc1/C=N/Nc1nc2ccccc2[nH]1 > 30 µM
CCCCC(=O)Nc1nn(CC)c2nc3c(C)cccc3cc12 > 30 µM
Cc1ccc(C(=O)Nc2cccc(-c3cnc4ccccc4n3)c2)cc1 > 30 µM
CCOC(=O)c1c(NC(=O)CSc2nnc(CNc3ccc(C)cc3C)o2)sc(C)c1C > 30 µM
CCn1c(C)nc2cc(-c3nnc(-c4c(-c5ccccc5)noc4C)o3)ccc21 > 30 µM
O=[N+]([O-])c1ccc(NCCCN2CCOCC2)c(Cl)c1 > 30 µM
Cc1cc(NS(=O)(=O)c2ccc(Nc3nc(-c4ccc(O)cc4)cs3)cc2)no1 > 30 µM
COc1cccc(-n2c(SCC(=O)NC3CCCC3)nnc2-c2ccco2)c1 > 30 µM
CN(c1ccccc1)c1nc(N)c([N+](=O)[O-])c(Nc2ccccc2F)n1 > 30 µM
CCOC(=O)c1sc(NC(=O)C2CC2)nc1C > 30 µM
O=C(N/N=C/c1ccc(Cl)c(Cl)c1)c1ccc2nc[nH]c2c1 > 30 µM
CC(NC(=O)COc1ccccc1F)C1CC2CCC1C2 (stereo not given) > 30 µM
COC(=O)C1=C(C)NC(=O)NC1c1ccc2c(c1)OCO2 (stereo not given) > 30 µM
Cc1cc(C)c(OCC(O)CNC(C)(C)C)c(C)c1 (stereo not given) > 30 µM
CN(C)C(=S)Nc1ccc([N+](=O)[O-])cc1 > 30 µM
CC(=O)Nc1ccccc1C > 30 µM
CC(C)c1ccc(C2CC(=O)N3CN(C)CSC3=C2C#N)cc1 (stereo not given) > 30 µM
CCOc1ccc(Nc2nc(N(C)c3ccccc3)nc(N)c2[N+](=O)[O-])cc1 > 30 µM
O=c1c(O[C@@H]2O[C@H](CO)[C@@H](O)[C@H](O)[C@H]2O)c(-c2ccc(O)cc2)oc2cc(O)cc(O)c12 > 30 µM

An excerpt from above in order of molecular weight, ascending.
AC50, inactive:
NC(=O)c1sc2nc3c(c(-c4ccccc4)c2c1N)CCC3 > 30 µM
O=c1c(O[C@@H]2O[C@H](CO)[C@@H](O)[C@H](O)[C@H]2O)c(-c2ccc(O)cc2)oc2cc(O)cc(O)c12 > 30 µM
COc1ccc(Nc2sc(C(=O)c3ccc(Cl)cc3)c(N)c2C(=O)Nc2ccccc2OC)cc1 > 30 µM

From PubChem BioAssay AID463205 (Broad Institute, 2010)
